PubChem BioAssay AID1259254, NCATS, 2017
In all, the deposit lists about 59,000 reagents; this is a part drawn at random. In the full data, about 1,550 (2.6%) got an active call. 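G2 share is only a proxy for re-replication; each gene was hit by three separate siRNAs, and active genes were retested.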 Entries without a mark were called inactive. The numbers tell different reagents against one gene apart. Not all columns of the deposit are shown. Reagent sequences are not shown. Not stated in the record: the amount of reagent.

Assay: 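Finding genes that stop cells copying their DNA twice in one cycle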 (primary screen)
Cells: human HCT116 colorectal cancer cells
Reagent: single siRNA against human genes
Time to read-out: 3 days
Read-out: 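Nuclei stained with Hoechst and imaged; cell-cycle phase assigned by DNA content; G2 share scaled per plate, non-targeting siRNA 0%, GMNN siRNA 100%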
Scale: G2 robust z-score and G2 cells, % of GMNN control: higher = more G2 cells, more excess DNA replication
Hit rule: 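An siRNA counts as active if its G2 robust z-score lies at least 5 MADs above the screen median; here such calls match roughly 38% of GMNN control or more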

Gene | reagent no. | G2 robust z-score | G2 cells, % of GMNN control
AP1M2 (GeneID 10053) | 1 | 0.551 | 6.85
AP1M2 (GeneID 10053) | 2 | -1.06 | -4.49
AP1M2 (GeneID 10053) | 3 | 3.05 | 24.4
CFAP210 (GeneID 129881) | 1 | 1.5 | 13.5
CFAP210 (GeneID 129881) | 2 | -0.523 | -0.71
CFAP210 (GeneID 129881) | 3 | -0.633 | -1.49
MANEAL (GeneID 149175) | 1 | -0.434 | -0.0859
MANEAL (GeneID 149175) | 2 | -1.27 | -5.99
MANEAL (GeneID 149175) | 3 | 2.72 | 22.1
FEZ1 (GeneID 9638) | 1 | -0.553 | -0.923
FEZ1 (GeneID 9638) | 2 | 0.0238 | 3.14
FEZ1 (GeneID 9638) | 3 | -0.646 | -1.58
GRP (GeneID 2922) | 1 | 2.19 | 18.4
GRP (GeneID 2922) | 2 | 0.552 | 6.85
GRP (GeneID 2922) | 3 | -0.287 | 0.945
ABCA8 (GeneID 10351) | 1 | 0.803 | 8.61
ABCA8 (GeneID 10351) | 2 | -1.81 | -9.78
ABCA8 (GeneID 10351) | 3 | 1.77 | 15.4
TCTN2 (GeneID 79867) | 1 | -0.788 | -2.57
TCTN2 (GeneID 79867) | 2 | 1.9 | 16.4
TCTN2 (GeneID 79867) | 3 | -0.82 | -2.8
ARPC5 (GeneID 10092) | 1 | -0.44 | -0.131
ARPC5 (GeneID 10092) | 2 | -1.4 | -6.9
ARPC5 (GeneID 10092) | 3 | -0.353 | 0.486
RHOXF1 (GeneID 158800) | 1 | -1.01 | -4.17
RHOXF1 (GeneID 158800) | 2 | -0.0964 | 2.29
RHOXF1 (GeneID 158800) | 3 | 2.01 | 17.1
CDS2 (GeneID 8760) | 1 | -0.928 | -3.56
CDS2 (GeneID 8760) | 2 | -0.774 | -2.48
CDS2 (GeneID 8760) | 3 | -0.717 | -2.08
CCT8 (GeneID 10694) | 1 | 0.418 | 5.91
CCT8 (GeneID 10694) | 2 | 3.97 | 30.9
CCT8 (GeneID 10694) | 3 | 1.09 | 10.6
NXPE1 (GeneID 120400) | 1 | 1.13 | 10.9
NXPE1 (GeneID 120400) | 2 | 0.532 | 6.71
NXPE1 (GeneID 120400) | 3 | 0.484 | 6.37
AKAP19 (GeneID 84281) | 1 | -0.95 | -3.72
AKAP19 (GeneID 84281) | 2 | -0.634 | -1.49
AKAP19 (GeneID 84281) | 3 | 0.293 | 5.03
PRND (GeneID 23627) | 1 | -0.585 | -1.15
PRND (GeneID 23627) | 2 | 1.43 | 13
PRND (GeneID 23627) | 3 | 1.38 | 12.7
RIF1 (GeneID 55183) | 1 | -0.114 | 2.16
RIF1 (GeneID 55183) | 2 | -0.695 | -1.92
RIF1 (GeneID 55183) | 3 | -0.661 | -1.68
MRGPRF (GeneID 116535) | 1 | 2.07 | 17.5
MRGPRF (GeneID 116535) | 2 | 3.38 | 26.7
MRGPRF (GeneID 116535) | 3 | 8.7 (active) | 64.2
BZW1 (GeneID 9689) | 1 | -0.796 | -2.64
BZW1 (GeneID 9689) | 2 | -0.564 | -1
BZW1 (GeneID 9689) | 3 | 0.416 | 5.9
ABCG8 (GeneID 64241) | 1 | 2.35 | 19.5
ABCG8 (GeneID 64241) | 2 | -0.77 | -2.45
ABCG8 (GeneID 64241) | 3 | 0.405 | 5.82
ARHGAP6 (GeneID 395) | 1 | -0.515 | -0.653
ARHGAP6 (GeneID 395) | 2 | 0.906 | 9.34
ARHGAP6 (GeneID 395) | 3 | -0.395 | 0.189
SPIN4 (GeneID 139886) | 1 | 0.318 | 5.2
SPIN4 (GeneID 139886) | 2 | 1.16 | 11.1
SPIN4 (GeneID 139886) | 3 | -0.179 | 1.71
CST6 (GeneID 1474) | 1 | -0.141 | 1.98
CST6 (GeneID 1474) | 2 | 2.63 | 21.5
CST6 (GeneID 1474) | 3 | 4.32 | 33.4
ZDHHC22 (GeneID 283576) | 1 | -1.46 | -7.32
ZDHHC22 (GeneID 283576) | 2 | -0.125 | 2.09
ZDHHC22 (GeneID 283576) | 3 | 2.5 | 20.5
CSNK1G1 (GeneID 53944) | 1 | 1.9 | 16.4
CSNK1G1 (GeneID 53944) | 2 | -1.27 | -5.95
CSNK1G1 (GeneID 53944) | 3 | 2.12 | 17.9
HP1BP3 (GeneID 50809) | 1 | 0.979 | 9.86
HP1BP3 (GeneID 50809) | 2 | 0.275 | 4.9
HP1BP3 (GeneID 50809) | 3 | -0.787 | -2.57
FAM3B (GeneID 54097) | 1 | 0.629 | 7.4
FAM3B (GeneID 54097) | 2 | -0.859 | -3.08
FAM3B (GeneID 54097) | 3 | 1.75 | 15.3
ADPRHL1 (GeneID 113622) | 1 | 0.197 | 4.36
ADPRHL1 (GeneID 113622) | 2 | 3.14 | 25
ADPRHL1 (GeneID 113622) | 3 | 0.958 | 9.71
RHBDF2 (GeneID 79651) | 1 | 0.171 | 4.17
RHBDF2 (GeneID 79651) | 2 | 2.93 | 23.6
RHBDF2 (GeneID 79651) | 3 | 0.525 | 6.66
NYNRIN (GeneID 57523) | 1 | -0.683 | -1.84
NYNRIN (GeneID 57523) | 2 | -0.393 | 0.205
NYNRIN (GeneID 57523) | 3 | -0.558 | -0.959
LRPAP1 (GeneID 4043) | 1 | -0.992 | -4.01
LRPAP1 (GeneID 4043) | 2 | 0.819 | 8.73
LRPAP1 (GeneID 4043) | 3 | -0.696 | -1.93

As entered above.
For “G2 cells, % of GMNN control”, FEZ1 (GeneID 9638) #2 reads 3.14
CST6 (GeneID 1474) #2, G2 robust z-score → 2.63
CSNK1G1 (GeneID 53944) #3, G2 robust z-score: 2.12
For “G2 cells, % of GMNN control”, CCT8 (GeneID 10694) #1 shows 5.91
Under “G2 robust z-score”, ABCG8 (GeneID 64241) #2 is entered as -0.77
Value of RHOXF1 (GeneID 158800) #1 in “G2 cells, % of GMNN control”: -4.17
